Measurements taken from patent US8623601B2, “Methods of diagnosing cancer” (Cognosci, Inc., priority 2011, dated 2014).
Not every detail of the peptide structures is certain; ends, links or a residue may be inferred. *1 amine or outer side, *2 acyl side, *3 side chain or, on linkers, in order; H or OH if unused. Bridges are numbered along the chain shown (N, C = ends). Roman numbers before positions name the chains, in order. BMOE = O=C1CC([*:1])C(=O)N1CCN1C(=O)CC([*:2])C1=O

Tests used:
[1] = test system: Ramos cells; experiment: Growth inhibition / cytotoxicity in Ramos NHL cells; format: cell-based, human; conditions: 72 hr
Procedure: FIG. 6: SET antagonism is cytotoxic to CLL cells and inhibits NHL cell growth in vitro. (A) Dose response curves for COG445 treatment of CLL cells from 7 patients or normal B-cells from 5 volunteers. (B) Dose response curves for COG449 treatment on CLL cells from 7 patients. (C) Raji NHL cells were transduced with SET shRNA or control lentivirus and knockdown was assessed by Western blotting from two samples of each.
FIG. 7: Cytotoxicity of COG449 can be modulated by a PP2A inhibitor in Ramos cells. Ramos cells were pretreated for 5 minutes with or without 1 nM OA before treatment with 1 μM COG449. After 24 hours, cytotoxicity was assessed using the […] assay reagent to detect viable cells.
(§1) Based on the induction of apoptosis in CLL cells, we tested several analogs of COG449 for cytotoxicity against CLL cells freshly isolated from a number of patients and against normal B-cells from healthy volunteers (Table 4). Cells were cultured with the agents for 72 hours, and the viable cells were assessed for cytotoxicity using the MTS assay. […] We also analyzed the effect of shRNA-mediated knockdown of SET on the growth of B-cell lymphoma cell lines.

[2] = test system: PP2A; experiment: PP2A activity measurement after immunoprecipitation from treated cells; format: cell-based; conditions: 32D:BCR/Abl cells
[3] = test system: Ramos cell tumor xenografts; experiment: Ramos xenograft model of tumor growth suppression in SCID mice; format: in vivo, mouse; conditions: 5 mg/kg daily subcutaneous
[4] = test system: Raji cells; experiment: Growth inhibition of Raji NHL cells, tetrazolium assay; format: cell-based, human; conditions: 72 hr
[5] = test system: CLL cells; experiment: CLL cell cytotoxicity, MTS assay; format: cell-based, human; conditions: CLL cells freshly isolated from patients, 72 hours, read-out: CLL ED50
Procedure: For cytotoxicity assays, 3×10^6 CLL cells/well were cultured in 24 well tissue culture plates in 1.5 mL of Hybridoma SFM™ (Gibco, Long Island, N.Y.) as described by Levesque et al. (Levesque et al. 2001) (Levesque et al. 2003) All cultures were incubated at 37° C., 5% CO2 in air. […] (Levesque et al. 2003)
as §1

[6] = test system: Mcl-1; experiment: Mcl-1 level in CLL cells by immunoblot; format: cell-based; conditions: freshly-isolated human CLL cells, 24 hrs, Mcl-1/β-Actin ratio
[7] = test system: primary CLL cells; experiment: Annexin-V:propidium iodide assay for apoptosis; format: cell-based, human; conditions: CLL cells from seven patients, 2 hours treatment, flow cytometry; read-out: ED50 of increase in Annexin-V/propidium iodide staining
[8] = test system: normal B-cells; experiment: Cytotoxicity to normal B-cells from healthy volunteers, MTS assay; format: cell-based, human; conditions: 72 hours, read-out: Normal ED50
Source text: CLL was diagnosed according to the NCl Working Group criteria (Hallek et al. 2008). Healthy volunteers and CLL patients from the Duke University and Durham Va. Medical Centers were enrolled in IRB-approved research protocols to collect clinical data and blood. Subjects gave signed informed consent prior to phlebotomy, in accordance with the Declaration of Helsinki. Blood was collected from participants into heparin-tubes, and CLL cells were purified as noted before (Weinberg et al. 2007). Briefly, CLL cells were isolated using the RosetteSep® B cell enrichment cocktail (catalog #15024/15064; Stem Cell Technologies, Vancouver, BC, Canada) according to the manufacturer's directions. This method yielded CLL cell purity of greater than 95% CD5+CD19+ B-cells as determined by flow cytometry. […]
as §1

I: Ac-RQIKIWFQNRRMKWKKCLRVRLASHLRKLRKRLL-NH2 / II: Ac-RQIKIWFQNRRMKWKKCLRVRLASHLRKLRKRLL-NH2 (linker I:17-II:17 via BMOE) [COG449]
growth of Ramos NHL cells in vitro [1]: inhibited growth
PP2A activity compared with 5 μM FTY720 ([2]; 1 μM, 30 minutes): increased the activity of PP2A in these cells to a greater level than did 5 μM FTY720
PP2A activity relative to controls ([2]; 1 μM COG449 or SET shRNA lentivirus, DiFMUP substrate): increased the activity of PP2A relative to controls
tumor growth (tumor volume) ([3]; day 11 to 19, vs vehicle, p=0.0008 two way ANOVA): significantly inhibited
final tumor mass ([3]; harvested day 19, vs vehicle, p=0.0009 t-test): significantly lower
growth of Raji NHL cells in vitro [4]: inhibited growth
EC50 [5]: 0.1 ± 0.01 µM
cellular level of Mcl-1 [6]: dose dependent decrease
EC50 [7]: 0.33 µM
EC50 [8]: > 10 µM
